Source: the supplement of paper PMC10849652
The other results are listed elsewhere or left out.

Protein sequences, listed by entry. Tags and fused reporters are not part of them. Lines headed by an entry give the natural chain unless they say otherwise; changes in a name come on top.
UniProt Q9BV40: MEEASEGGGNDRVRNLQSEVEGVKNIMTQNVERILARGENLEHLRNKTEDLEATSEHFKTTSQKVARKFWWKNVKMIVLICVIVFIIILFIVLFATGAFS
UniProt Q6PHR2: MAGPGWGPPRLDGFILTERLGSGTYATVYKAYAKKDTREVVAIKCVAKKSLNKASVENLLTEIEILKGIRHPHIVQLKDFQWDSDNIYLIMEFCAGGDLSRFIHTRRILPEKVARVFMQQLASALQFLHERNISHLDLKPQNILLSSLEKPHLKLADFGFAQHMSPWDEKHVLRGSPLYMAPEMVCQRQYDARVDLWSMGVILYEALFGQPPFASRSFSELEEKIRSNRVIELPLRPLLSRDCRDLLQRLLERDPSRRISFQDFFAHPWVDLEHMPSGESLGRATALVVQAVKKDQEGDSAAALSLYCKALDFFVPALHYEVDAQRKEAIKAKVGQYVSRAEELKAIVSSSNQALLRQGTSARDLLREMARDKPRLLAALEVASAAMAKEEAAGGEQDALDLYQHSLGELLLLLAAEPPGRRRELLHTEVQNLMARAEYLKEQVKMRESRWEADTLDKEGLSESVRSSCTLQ
UniProt Q9NVA1: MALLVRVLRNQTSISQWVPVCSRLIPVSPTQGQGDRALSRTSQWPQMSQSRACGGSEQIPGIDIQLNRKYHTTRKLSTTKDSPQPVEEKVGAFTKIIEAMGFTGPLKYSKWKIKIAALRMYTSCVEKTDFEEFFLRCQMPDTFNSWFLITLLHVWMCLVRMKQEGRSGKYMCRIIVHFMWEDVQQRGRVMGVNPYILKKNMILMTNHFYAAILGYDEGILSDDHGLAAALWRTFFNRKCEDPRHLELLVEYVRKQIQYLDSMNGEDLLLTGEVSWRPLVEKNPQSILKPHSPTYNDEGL
UniProt Q9Y4E8: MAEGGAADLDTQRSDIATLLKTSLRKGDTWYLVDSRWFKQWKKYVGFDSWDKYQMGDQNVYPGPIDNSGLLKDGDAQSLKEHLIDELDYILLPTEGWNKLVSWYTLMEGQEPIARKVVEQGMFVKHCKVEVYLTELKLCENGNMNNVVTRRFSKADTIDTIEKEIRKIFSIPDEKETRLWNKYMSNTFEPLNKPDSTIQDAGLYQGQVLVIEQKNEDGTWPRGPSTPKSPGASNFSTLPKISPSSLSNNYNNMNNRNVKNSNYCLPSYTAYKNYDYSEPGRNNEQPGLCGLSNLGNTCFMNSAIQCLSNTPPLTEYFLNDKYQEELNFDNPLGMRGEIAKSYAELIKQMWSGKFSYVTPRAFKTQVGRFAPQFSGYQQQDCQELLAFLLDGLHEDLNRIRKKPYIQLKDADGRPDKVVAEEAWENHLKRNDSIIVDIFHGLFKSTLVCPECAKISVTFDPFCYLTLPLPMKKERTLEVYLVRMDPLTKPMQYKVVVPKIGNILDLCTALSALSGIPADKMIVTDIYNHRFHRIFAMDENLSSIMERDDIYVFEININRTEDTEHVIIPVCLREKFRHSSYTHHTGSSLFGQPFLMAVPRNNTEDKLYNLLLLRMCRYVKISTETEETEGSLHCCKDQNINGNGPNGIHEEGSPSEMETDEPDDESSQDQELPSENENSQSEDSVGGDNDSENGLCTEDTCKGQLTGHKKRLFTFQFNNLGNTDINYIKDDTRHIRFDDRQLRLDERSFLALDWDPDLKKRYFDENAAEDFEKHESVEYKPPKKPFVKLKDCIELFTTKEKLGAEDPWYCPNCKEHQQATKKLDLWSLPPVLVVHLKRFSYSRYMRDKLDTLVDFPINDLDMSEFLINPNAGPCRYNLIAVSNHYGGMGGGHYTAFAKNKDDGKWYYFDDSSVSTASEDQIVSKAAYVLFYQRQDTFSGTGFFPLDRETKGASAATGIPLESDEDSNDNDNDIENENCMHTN
UniProt P47985: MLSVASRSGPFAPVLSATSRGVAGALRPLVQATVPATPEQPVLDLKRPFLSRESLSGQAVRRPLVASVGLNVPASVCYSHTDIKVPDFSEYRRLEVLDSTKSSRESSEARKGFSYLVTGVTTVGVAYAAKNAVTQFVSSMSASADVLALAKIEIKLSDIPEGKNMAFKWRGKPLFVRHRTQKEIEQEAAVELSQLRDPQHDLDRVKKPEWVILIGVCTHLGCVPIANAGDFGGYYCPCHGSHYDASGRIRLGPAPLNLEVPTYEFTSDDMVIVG
UniProt Q9NUQ7: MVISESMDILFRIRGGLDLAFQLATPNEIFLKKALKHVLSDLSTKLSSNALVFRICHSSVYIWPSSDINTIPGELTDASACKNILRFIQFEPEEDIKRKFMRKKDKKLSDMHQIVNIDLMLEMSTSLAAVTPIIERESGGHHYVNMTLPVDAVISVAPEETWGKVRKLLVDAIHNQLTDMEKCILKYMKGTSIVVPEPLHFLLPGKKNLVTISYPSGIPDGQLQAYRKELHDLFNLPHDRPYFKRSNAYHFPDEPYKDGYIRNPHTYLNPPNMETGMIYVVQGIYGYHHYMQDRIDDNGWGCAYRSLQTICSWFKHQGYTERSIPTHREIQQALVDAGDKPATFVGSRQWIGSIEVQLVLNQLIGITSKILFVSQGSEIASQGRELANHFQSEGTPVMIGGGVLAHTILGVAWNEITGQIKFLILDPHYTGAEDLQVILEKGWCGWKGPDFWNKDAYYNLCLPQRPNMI
UniProt Q8NBZ7: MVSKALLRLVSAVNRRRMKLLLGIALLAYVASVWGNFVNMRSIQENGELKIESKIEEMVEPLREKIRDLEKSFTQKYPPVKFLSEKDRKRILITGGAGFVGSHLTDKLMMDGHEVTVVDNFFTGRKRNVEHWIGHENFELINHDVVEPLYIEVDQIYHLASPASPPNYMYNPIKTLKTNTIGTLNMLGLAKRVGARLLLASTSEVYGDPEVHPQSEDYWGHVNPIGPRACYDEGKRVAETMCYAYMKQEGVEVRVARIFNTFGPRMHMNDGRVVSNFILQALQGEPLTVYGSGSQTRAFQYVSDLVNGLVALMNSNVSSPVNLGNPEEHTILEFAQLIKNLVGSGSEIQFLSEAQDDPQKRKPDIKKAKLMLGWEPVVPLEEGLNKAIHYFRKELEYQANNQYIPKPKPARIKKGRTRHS
UniProt Q14139: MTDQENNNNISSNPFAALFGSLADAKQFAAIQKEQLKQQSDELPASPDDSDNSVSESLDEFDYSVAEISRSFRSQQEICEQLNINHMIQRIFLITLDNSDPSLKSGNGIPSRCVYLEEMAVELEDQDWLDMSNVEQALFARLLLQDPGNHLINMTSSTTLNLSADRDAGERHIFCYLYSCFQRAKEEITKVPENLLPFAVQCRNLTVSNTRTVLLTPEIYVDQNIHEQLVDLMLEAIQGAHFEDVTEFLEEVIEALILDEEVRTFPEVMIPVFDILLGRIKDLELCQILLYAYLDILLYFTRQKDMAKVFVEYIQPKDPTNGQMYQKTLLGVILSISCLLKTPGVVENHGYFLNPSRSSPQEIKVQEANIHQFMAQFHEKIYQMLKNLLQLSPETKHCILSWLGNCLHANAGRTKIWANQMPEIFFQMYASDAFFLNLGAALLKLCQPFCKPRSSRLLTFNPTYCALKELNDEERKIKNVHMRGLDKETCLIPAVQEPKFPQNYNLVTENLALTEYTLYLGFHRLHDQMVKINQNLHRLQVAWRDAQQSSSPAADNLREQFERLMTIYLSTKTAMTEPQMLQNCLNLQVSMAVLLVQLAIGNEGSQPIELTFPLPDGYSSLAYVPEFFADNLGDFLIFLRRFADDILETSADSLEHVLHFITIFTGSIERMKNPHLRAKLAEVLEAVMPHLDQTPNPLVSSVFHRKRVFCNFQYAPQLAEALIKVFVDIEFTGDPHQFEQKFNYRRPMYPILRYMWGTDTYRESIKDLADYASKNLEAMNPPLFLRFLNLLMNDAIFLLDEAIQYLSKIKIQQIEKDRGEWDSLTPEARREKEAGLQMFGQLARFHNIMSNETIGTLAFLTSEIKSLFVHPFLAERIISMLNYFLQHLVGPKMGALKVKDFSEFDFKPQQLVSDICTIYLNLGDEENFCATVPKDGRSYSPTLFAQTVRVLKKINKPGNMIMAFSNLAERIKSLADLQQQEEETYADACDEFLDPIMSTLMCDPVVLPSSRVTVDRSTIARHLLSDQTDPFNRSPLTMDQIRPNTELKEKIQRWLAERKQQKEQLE
UniProt O00124: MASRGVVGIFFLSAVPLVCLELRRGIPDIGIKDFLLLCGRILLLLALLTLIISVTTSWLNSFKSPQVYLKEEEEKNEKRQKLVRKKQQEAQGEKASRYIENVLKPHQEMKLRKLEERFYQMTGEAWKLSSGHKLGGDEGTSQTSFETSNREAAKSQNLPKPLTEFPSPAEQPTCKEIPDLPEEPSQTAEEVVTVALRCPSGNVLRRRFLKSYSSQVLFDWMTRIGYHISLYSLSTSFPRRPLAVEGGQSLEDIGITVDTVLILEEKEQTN
UniProt P26640: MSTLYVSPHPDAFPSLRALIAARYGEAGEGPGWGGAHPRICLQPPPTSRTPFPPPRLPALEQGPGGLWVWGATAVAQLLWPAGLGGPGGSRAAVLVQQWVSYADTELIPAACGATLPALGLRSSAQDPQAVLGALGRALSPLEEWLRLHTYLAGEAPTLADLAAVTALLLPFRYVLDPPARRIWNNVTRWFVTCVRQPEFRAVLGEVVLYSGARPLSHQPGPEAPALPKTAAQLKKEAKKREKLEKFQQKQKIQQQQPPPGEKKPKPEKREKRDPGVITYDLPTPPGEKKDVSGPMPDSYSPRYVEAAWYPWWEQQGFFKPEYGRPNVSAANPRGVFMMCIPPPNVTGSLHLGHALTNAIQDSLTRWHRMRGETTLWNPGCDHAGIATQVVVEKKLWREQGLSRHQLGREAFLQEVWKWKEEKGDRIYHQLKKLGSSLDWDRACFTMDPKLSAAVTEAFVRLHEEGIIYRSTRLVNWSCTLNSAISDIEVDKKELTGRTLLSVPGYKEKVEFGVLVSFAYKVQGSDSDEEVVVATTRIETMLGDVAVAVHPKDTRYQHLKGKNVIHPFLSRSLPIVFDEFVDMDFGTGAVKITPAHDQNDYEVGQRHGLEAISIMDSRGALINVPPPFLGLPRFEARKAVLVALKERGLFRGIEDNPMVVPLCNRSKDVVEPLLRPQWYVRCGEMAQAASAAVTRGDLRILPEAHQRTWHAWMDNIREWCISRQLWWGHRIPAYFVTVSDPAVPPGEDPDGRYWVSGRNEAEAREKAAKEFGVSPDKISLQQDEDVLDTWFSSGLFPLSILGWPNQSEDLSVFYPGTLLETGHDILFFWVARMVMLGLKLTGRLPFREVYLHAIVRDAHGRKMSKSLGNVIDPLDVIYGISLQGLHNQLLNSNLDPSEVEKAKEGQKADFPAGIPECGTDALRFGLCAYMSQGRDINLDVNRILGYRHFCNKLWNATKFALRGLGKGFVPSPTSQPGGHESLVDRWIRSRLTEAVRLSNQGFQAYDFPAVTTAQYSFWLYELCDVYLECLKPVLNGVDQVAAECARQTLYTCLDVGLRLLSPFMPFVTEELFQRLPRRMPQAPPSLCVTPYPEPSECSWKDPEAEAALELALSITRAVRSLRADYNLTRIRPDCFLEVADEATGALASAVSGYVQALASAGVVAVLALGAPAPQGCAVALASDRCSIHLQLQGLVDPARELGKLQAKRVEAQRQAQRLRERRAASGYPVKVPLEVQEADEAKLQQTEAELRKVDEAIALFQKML
UniProt O94763, whole entry, looked up: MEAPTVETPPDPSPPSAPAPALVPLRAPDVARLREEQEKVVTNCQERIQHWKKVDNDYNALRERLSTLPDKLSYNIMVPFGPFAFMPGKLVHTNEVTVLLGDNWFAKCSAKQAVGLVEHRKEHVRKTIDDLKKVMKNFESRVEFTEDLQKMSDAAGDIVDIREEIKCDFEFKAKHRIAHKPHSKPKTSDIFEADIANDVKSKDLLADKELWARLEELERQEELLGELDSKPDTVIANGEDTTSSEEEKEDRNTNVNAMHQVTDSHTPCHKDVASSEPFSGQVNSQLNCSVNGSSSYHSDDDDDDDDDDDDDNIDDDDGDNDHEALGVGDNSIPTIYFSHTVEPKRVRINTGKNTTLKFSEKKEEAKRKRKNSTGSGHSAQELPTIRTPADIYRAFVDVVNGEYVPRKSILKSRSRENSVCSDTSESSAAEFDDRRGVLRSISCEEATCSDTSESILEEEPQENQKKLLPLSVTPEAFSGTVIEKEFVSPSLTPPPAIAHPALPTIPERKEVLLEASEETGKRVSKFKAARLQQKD
UniProt Q96S82: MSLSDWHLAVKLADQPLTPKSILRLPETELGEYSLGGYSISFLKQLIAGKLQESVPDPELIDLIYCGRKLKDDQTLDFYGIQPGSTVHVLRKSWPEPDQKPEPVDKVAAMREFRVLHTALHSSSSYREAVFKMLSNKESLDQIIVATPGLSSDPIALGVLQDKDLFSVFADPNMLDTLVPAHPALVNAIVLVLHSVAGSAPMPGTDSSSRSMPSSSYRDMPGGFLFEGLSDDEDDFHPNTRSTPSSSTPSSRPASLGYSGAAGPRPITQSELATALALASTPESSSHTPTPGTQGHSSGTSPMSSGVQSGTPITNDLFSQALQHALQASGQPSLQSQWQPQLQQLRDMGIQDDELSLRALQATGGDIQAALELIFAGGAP

Legend:
Assay in all cases: log2 fold change, soluble protein after heating vs DMSO (PISA); higher = thermal stabilisation; K562 cells, 10 uM, 30 min; active = over 0.2 and 3.5 SD of the protein, either way, in both replicates (recomputed)
[1] = compound: C1=CC=C(C=C1)[C@H](COC2=CC3=C(C=C2)NC(=O)N3)NC(=O)C4=CC=CN(C4=O)CC5=CC(=C(C=C5)F)F
Summary of the method: (§1)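 K562 cells at 2×10^6 cells/mL were exposed to 10 μM compound for 30 min, then aliquots were heated for 3 min across 48°C-58°C, pooled, and extracted in PBS containing 0.5% NP-40 at 4°C. The supernatant after 21,000xg for 90 min was taken as soluble protein and measured by TMTpro 16plex LC-MS/MS with channel sums equalised. Thermal stability is reported relative to control samples, with values from duplicates. Fold changes are given on a log2 scale.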

[2] = compound: CC1=C(SC2=C1C(=N[C@H](C3=NN=C(N32)C)CC(=O)N)C4=CC=C(C=C4)Cl)C
Summary of the method: as §1

[3] = compound: CC1=C2C(=CC=C1)N=C(N(C2=O)C3=CC=CC=C3C)CN4C=NC5=C(N=CN=C54)N
Summary of the method: as §1

[4] = compound: Cc1sc2c(c1C)C(c1ccc(Cl)cc1)=N[C@@H](CC(=O)OC(C)(C)C)c1nnc(C)n1-2
Summary of the method: as §1

[5] = compound: c1ccc([C@@H]2C[C@H]2NC2CCNCC2)cc1
Summary of the method: as §1

Measured: log2 fold change

VAMP8 (UniProt Q9BV40)
inactive: [1] 0.032 | [2] 0.035 | [3] -0.041 | [4] 0.008 | [5] 0.006

USF2 (UniProt Q15853)
inactive: [1] -0.018 | [2] -0.105 | [3] -0.045 | [4] -0.031 | [5] -0.007

UBXN7 (UniProt O94888)
inactive: [1] -0.022 | [2] 0.012 | [3] 0.039 | [4] 0.001 | [5] -0.01

UGP2 (UniProt Q16851)
inactive: [1] 0.003 | [2] 0.05 | [3] 0.047 | [4] -0.029 | [5] -0.005

ULK3 isoform 4 (UniProt Q6PHR2)
inactive: [1] -0.283

UBL5 (UniProt Q9BZL1)
inactive: [1] -0.051 | [2] -0.102 | [3] 0.051 | [4] -0.016 | [5] 0.03

UHRF1BP1 (UniProt Q6BDS2)
inactive: [1] -0.01 | [2] 0.109 | [3] 0.006 | [4] -0.001 | [5] -0.007

UBIAD1 (UniProt Q9Y5Z9)
inactive: [1] 0.012 | [2] 0.029 | [3] 0.068 | [4] -0.074 | [5] 0.093

USP13 (UniProt Q92995)
inactive: [1] -0.02 | [2] -0.009 | [3] 0.076 | [4] 0.005 | [5] -0.048

UNG (UniProt P13051)
inactive: [1] -0.132 | [2] 0.097 | [3] 0.137 | [4] -0.12 | [5] 0.074

UQCC1 (UniProt Q9NVA1)
inactive: [1] 0.012 | [2] 0.009 | [3] -0.035 | [4] 0 | [5] 0.005

UFD1 isoform 1 (UniProt Q92890)
inactive: [1] -0.011 | [2] 0.038 | [3] 0.033 | [4] -0.045 | [5] 0.019

UGP2 (UniProt C9JWG0)
inactive: [1] -0.014

UTP18 (UniProt Q9Y5J1)
inactive: [1] 0.011

UQCRC1 (UniProt P31930)
inactive: [1] 0.009 | [2] 0.003 | [3] 0.028 | [4] -0.029 | [5] 0.029

UTP14A (UniProt Q9BVJ6)
inactive: [1] 0.039 | [2] -0.276 | [3] -0.154 | [4] 0.124 | [5] 0.029

USP15 (UniProt Q9Y4E8)
inactive: [1] -0.038 | [2] 0.035 | [3] 0.059 | [4] 0.008 | [5] -0.016

USP9X (UniProt Q93008)
inactive: [1] -0.049 | [2] 0.028 | [3] 0.057 | [4] 0.012 | [5] -0.007

USP14 (UniProt P54578)
inactive: [1] -0.031 | [2] 0.03 | [3] 0.046 | [4] -0.028 | [5] -0.025

UQCRFS1 (UniProt P47985)
inactive: [1] 0.021 | [2] 0.006 | [3] -0.047 | [4] -0.009 | [5] -0.047

UNC13D isoform 3 (UniProt Q70J99)
inactive: [1] 0.081 | [2] -0.077 | [3] 0.025 | [4] 0.086 | [5] -0.099

UEVLD (UniProt Q8IX04)
inactive: [1] 0.107 | [2] 0.071 | [3] 0.229 | [4] 0.066 | [5] 0.081

USP48 (UniProt Q86UV5)
inactive: [1] 0

UMPS (UniProt P11172)
inactive: [1] 0 | [2] 0.003 | [3] 0.029 | [4] -0.015 | [5] 0.01

USP7 (UniProt Q93009)
inactive: [1] -0.165 | [2] 0.026 | [3] 0.09 | [4] -0.01 | [5] -0.062

UFSP2 (UniProt Q9NUQ7)
inactive: [1] 0.005 | [2] 0.064 | [3] 0.057 | [4] 0.017 | [5] -0.019

UXS1 isoform 2 (UniProt Q8NBZ7)
inactive: [1] -0.009 | [2] -0.058 | [3] -0.026 | [4] -0.046 | [5] -0.006

UBLCP1 (UniProt Q8WVY7)
inactive: [1] -0.066 | [2] 0.067 | [3] 0.066 | [4] -0.018 | [5] 0.011

UBE4A isoform 2 (UniProt Q14139)
inactive: [1] -0.051 | [2] -0.067 | [3] 0.013 | [4] 0.013 | [5] 0.081

UFC1 (UniProt Q9Y3C8)
inactive: [1] 0.006 | [2] 0 | [3] -0.049 | [4] -0.005 | [5] 0.037

UROD (UniProt P06132)
inactive: [1] 0.02 | [2] 0.022 | [3] 0.02 | [4] -0.015 | [5] -0.016

UCHL5 (UniProt Q9Y5K5)
inactive: [1] -0.048 | [2] 0.004 | [3] 0.043 | [4] 0.027 | [5] 0.004

Reprinted from the results shown (2 entries):
UFC1 (UniProt Q9Y3C8)
inactive: [1] 0.006 | [2] 0 | [3] -0.049 | [4] -0.005 | [5] 0.037

UROD (UniProt P06132)
inactive: [1] 0.02 | [2] 0.022 | [3] 0.02 | [4] -0.015 | [5] -0.016

Continued.

USP19 isoform 6 (UniProt O94966)
inactive: [1] -0.008 | [2] 0.07 | [3] 0.037 | [4] -0.05 | [5] 0.002

VAPB (UniProt O95292)
inactive: [1] 0.004 | [2] 0.008 | [3] 0.024 | [4] -0.015 | [5] -0.025

VCL (UniProt P18206)
inactive: [1] -0.017 | [2] 0.003 | [3] -0.04 | [4] -0.004 | [5] 0.015

UQCRB (UniProt P14927)
inactive: [1] 0.018 | [2] 0.043 | [3] 0.049 | [4] -0.044 | [5] -0.012

USP34 (UniProt Q70CQ2)
inactive: [1] -0.083 | [2] 0.081 | [3] 0.142 | [4] -0.003 | [5] 0.034

UBR4 isoform 2 (UniProt Q5T4S7)
inactive: [1] -0.006 | [2] -0.024 | [3] 0.012 | [4] 0.001 | [5] -0.032

UBR3 isoform 4 (UniProt Q6ZT12)
inactive: [1] 0.084 | [2] 0.077 | [3] 0.022 | [4] 0.022 | [5] -0.046

USP1 (UniProt O94782)
inactive: [1] -0.037 | [2] -0.118 | [3] 0.251 | [4] -0.1 | [5] -0.008

UPF2 (UniProt Q9HAU5)
inactive: [1] 0.034 | [2] -0.082 | [3] -0.144 | [4] 0.215 | [5] -0.038

UGGT2 (UniProt Q9NYU1)
inactive: [1] 0.064 | [2] 0.054 | [3] 0.085 | [4] -0.036 | [5] 0.035

UBXN8 (UniProt O00124)
inactive: [1] 0.3 | [2] -0.074 | [3] 0.192 | [4] 0.099 | [5] -0.055

USP30 (UniProt Q70CQ3)
inactive: [1] -0.222 | [2] 0.016 | [3] -0.089 | [4] -0.16 | [5] 0.108

USP47 (UniProt Q96K76)
inactive: [1] -0.021 | [2] -0.04 | [3] 0.1 | [4] 0.046 | [5] -0.016

UGCG (UniProt Q16739)
inactive: [1] 0.01 | [2] 0.039 | [3] 0.081 | [4] 0.161 | [5] -0.1

VAPA (UniProt Q9P0L0)
inactive: [1] -0.032 | [2] 0 | [3] 0.029 | [4] -0.033 | [5] 0.012

VCP (UniProt P55072)
inactive: [1] 0.02 | [2] 0.008 | [3] -0.012 | [4] 0.014 | [5] 0.044

VARS (UniProt P26640)
inactive: [1] -0.001 | [2] 0.007 | [3] 0.06 | [4] 0.009 | [5] -0.021

UCHL3 (UniProt P15374)
inactive: [1] -0.02 | [2] 0.044 | [3] 0.089 | [4] -0.023 | [5] -0.064

UROS (UniProt P10746)
inactive: [1] -0.076 | [2] 0.077 | [3] 0.004 | [4] -0.023 | [5] -0.042

VARS2, A0A0G2JL52
inactive: [1] -0.006 | [2] 0.006 | [3] 0.044 | [4] -0.004 | [5] -0.015

UBQLN2 (UniProt Q9UHD9)
inactive: [1] 0.02 | [2] 0.045 | [3] 0.023 | [4] -0.091 | [5] 0.003

URI1 (UniProt O94763)
inactive: [1] -0.023 | [2] 0.005 | [3] 0.069 | [4] 0.057 | [5] -0.007

UBL7 (UniProt Q96S82)
inactive: [1] 0.011 | [2] 0.091 | [3] 0.201 | [4] -0.142 | [5] 0.008

USO1 isoform 2 (UniProt O60763)
inactive: [1] -0.007 | [2] 0.012 | [3] 0.028 | [4] 0.012 | [5] 0.048
